# Experimental data published in PubChem BioAssay AID2685 (National Center for Advancing Translational Sciences (NCATS), 2010).
# Out of some 320,000 compounds screened, about 2,100 (0.66%) were called active. Inconclusive means that the source gave no clear call. Such entries were picked first, then a sample of the others. Calls follow the shape of the dose curve; as a rule, active = well fitted inhibition curve with a large enough effect in the signal ratio, with a control signal flat (not every such curve was filed as active); inconclusive = small, poorly fitted or top-dose-only effect, or effect the other way, or a change in a side signal; inactive = flat fitted curve, though single readings scatter; the % refers to the signal ratio. Where the call is inconclusive, the potency comes from a doubtful curve fit.
# Assay: qHTS Assay for Lipid Storage Modulators in Drosophila S3 Cells
# Conditions: BODIPY lipid droplet fluorescence, 18-24 h, cells fed with added oleic acid; lipid storage change, negative = inhibition: at 46.1 µM (top of the series) unless noted
# Procedure, shortened: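 Drosophila S3 cells got compounds at several concentrations plus oleic acid (400 uM solution). Laser-scanning cytometry with 488 nm excitation read lipid droplets at 500-530 nm and cells at 575-640 nm. Percent activity was relative to 20 uM Triacsin C.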
# % is scaled to controls: 0 for no effect and ±100 for the full control effect; potency is read from the fitted curve at half-maximal effect.
SMILES,"lipid storage change, negative = inhibition",Potency
COc1cccc(CNC(=O)C2CCN(S(=O)(=O)N3CCCCC3)CC2)c1,inconclusive: -31.1%,
S=C(NCCc1ccccc1)NC1CC1,inconclusive: 9.29%,
CCOC(=O)c1oc2nc(C(C)C)c3c(c2c1N)CCC3,,"inconclusive: 0.0651 µM [activator, full curve, poor fit]"
O=C(NCC1CCCCC1)C1CCCN(C(=O)NC2CCCCC2)C1 (centres undefined),,"inconclusive: 3.26 µM [activator, partial curve]"
CCCn1c(=N)c(C#N)cc2c(=O)n3cccc(C)c3nc21,inconclusive: 15.8%,
CCOC(=O)C1CCCCN1Cc1cn(C)nc1-c1ccccc1F (centres undefined),,"inconclusive: 29.1 µM [falling, single point]"
CSc1nsc(SC)c1C(=O)N1CCN(S(=O)(=O)c2ccc(C)cc2)C1C(C)C (centres undefined),inconclusive: -18.7%,
Cc1ccccc1CN(C)C(C)C(=O)NCc1ccccc1 (centres undefined),inactive: 7.5%,
O=C(Nc1cccc(S(=O)(=O)N2CCOCC2)c1)[C@@H]1CCCN1S(=O)(=O)c1ccc(Cl)cc1,inconclusive: -5.2%,
OC(CCc1ccncc1)c1ccccc1 (centres undefined),,"inconclusive: 6.51 µM [activator, partial curve]"
CC(n1cnnn1)C12CC3CC(CC(C3)C1)C2 (centres undefined),,"inconclusive: 2.06 µM [falling, partial curve, poor fit]"
Cc1ccccc1NC(=O)c1ccc(C)c(S(=O)(=O)Nc2cccnc2)c1,,"inconclusive: 2.91 µM [falling, single point]"
C[C@@H](NC(=O)[C@@H]1Cc2ccccc2CN1)C(=O)Nc1ccc2c(c1)OCCO2,inconclusive: -44.1%,
NNC(=O)CCc1nc2ccccc2[nH]1,,"inconclusive: 3.66 µM [activator, single point]"
Cc1ccc(C(=O)Oc2cccnc2)cc1[N+](=O)[O-],,"inconclusive: 29.1 µM [falling, single point]"
O=C(CSc1ncn[nH]1)N1N=C(c2ccc(Cl)cc2)CC1c1ccco1 (centres undefined),inconclusive: 38.3%,
C=CCN(Cc1nc(-c2ccccc2)no1)C(=O)c1ccco1,inconclusive: 153%,
C[C@H](NC(=O)c1ccc(Cl)cc1)C(=O)NCCc1ccc(S(N)(=O)=O)cc1,inconclusive: 0.207%,
CCOC(=O)CN1C(=O)NC(C)(c2ccc(OC(F)F)cc2)C1=O (centres undefined),inconclusive: 13.8%,
Cc1ccc(NS(=O)(=O)c2c(C)[nH]c(=O)[nH]c2=O)c(C)c1,inconclusive: 7.3%,

# Three entries from above, ordered by molecular weight, ascending.
SMILES,"lipid storage change, negative = inhibition",Potency
NNC(=O)CCc1nc2ccccc2[nH]1,,"inconclusive: 3.66 µM [activator, single point]"
Cc1ccccc1CN(C)C(C)C(=O)NCc1ccccc1 (centres undefined),inactive: 7.5%,
C[C@H](NC(=O)c1ccc(Cl)cc1)C(=O)NCCc1ccc(S(N)(=O)=O)cc1,inconclusive: 0.207%,

# More structures.

SMILES,"lipid storage change, negative = inhibition",Potency
COc1ccc(C(=O)NC(=S)NNC(=O)c2cnccn2)cc1OC,inconclusive: -13.9%,
Cc1ccc(C2=Nc3ccccc3SC(c3cccc([N+](=O)[O-])c3)C2)cc1 (centres undefined),inconclusive: -18.2%,
CN(C(=O)c1ccc(NC(=O)Cc2cccc(NC(=O)C3CCCN(C(=O)C4CCCCC4)C3)c2)cc1)C1CCCC1 (centres undefined),inconclusive: -42.4%,
CC12CN3CC(C)(CN(C1)C3c1ccc(Br)cc1O)C2 (centres undefined),inconclusive: -37.5%,
CC(C)(C)c1cc(C(=O)NNc2cc(C(F)(F)F)ccc2Cl)n(Cc2ccccc2)n1,,active: 25.9 µM
COc1ccc(CC(=O)Oc2ccc(C(C)(C)C)cc2)cc1S(=O)(=O)N1CCOCC1,inconclusive: 30.7%,
CC(C)(C)C(=O)C(Cl)C(=O)Nc1ccccc1 (centres undefined),,"inconclusive: 29.1 µM [falling, single point]"
COCCCn1c(=O)c2ccccc2n(Cc2ccc(C)cc2)c1=O,inconclusive: 27.2%,
CCCCC#Cc1ccc2c(c1)COc1c3ccccc3nn1-2,inconclusive: 20%,
O=C(Nc1c(F)cc(F)cc1Br)c1cc(-c2ccco2)on1,inconclusive: 12.4%,
Cc1ccc(N(C(=O)C2CCCO2)C2C=CS(=O)(=O)C2)cc1Cl (centres undefined),,"inconclusive: 0.651 µM [falling, full curve]"
CCNC(=S)NS(=O)(=O)c1ccc(F)cc1,inconclusive: -9.5%,
C/C(=N\NC1=N[C@H]2CS(=O)(=O)C[C@H]2S1)c1ccccc1,inconclusive: -2.2%,
COc1cc(NC(=O)c2ccccc2)c(OC)cc1NC(=O)CN1C(=O)NC2(CCCCC2C)C1=O (centres undefined),inconclusive: -32.8%,
CC(/C=N/NC(=O)c1ccc(Cn2cc([N+](=O)[O-])cn2)o1)=C\c1ccccc1,inconclusive: 46.4%,
CC(=O)c1ccc(Sc2ccccc2N)c([N+](=O)[O-])c1,inconclusive: 8.06%,
CC(C)n1cc(CN2CCC(C(=O)Nc3ccc(Oc4ccccc4F)cc3)CC2)cn1,,"inconclusive: 0.58 µM [activator, single point]"
CCCC(=O)c1cc(-c2nc3ccccc3n2C)n(C)c1,,"inconclusive: 8.2 µM [activator, partial curve]"
O=C(NC(Cc1ccc2c(c1)OCO2)C(=O)N1CCCC1C(=O)O)c1ccccc1 (centres undefined),,"inconclusive: 6.51 µM [falling, partial curve, poor fit]"
